Results are given in words; binding and its absence hold for the method and conditions named. In cells and extracts the contact can be indirect. Here binding means that the protein was enriched with, or labelled near, the bait; the list need not be complete. Where a sequence is shown, tags or fusion partners need not be part of it.
B1: Rab-GAP TBC domain-containing protein (EHI_069260) (protein, UniProt C4LWL4 1-350)
chain: MSIKEELEKRMKVLQKKYPNSYVQKFLSSFTRQTTFEGNKSKIYDIIEDLKKGDKRKLYFDCSNGVPKELRAPVWYCMATERCSYEEIIQIKSKKLYMEYWSEAYECEIFDLNKKQARTIDVDVVRLFPEGYKEIFKHEEVRRRIRRIKRMYECHFPNPGYFQGMGDIVAVFFVIFSEYYINEFSIDNYLKTDNEILDTIECATYVLLIYMMKNIYCECKTIAGVKEFHPESLWREIVKFYTLKDKNFNIKYDEFIIKQQIYKILVCFFARDLNIHLTSVIYDGLICGTCCSEGKVFNGIIKLAIAFIEMIKQQGVDLGDLYSFNKESHKFFETITESKTSQLIAIAWYL
B2: RasGAP (EHI_001910) (protein, UniProt C4M5K5 1-426)
chain: MSFFKAHYTYNPNGDKYKFDQLLFVRDSEFLRCYCAEFVKGKMAPECNTNARLLVEYFNVHGKLLDLMKEVAKREIETTNAETQVFRGNTSFTRLYGEYCHLCLLPYLRAVTKEVIQLLINEDTKLDPDALNSPELENHKESMDTFCKLAHMFGTKLVDCVHLLPSHFHQLLRFISVEVGNKKSVKSTPQNTFNLLFFIRTVFPVFHAPQHVMDTIQPPSPEMAKRLTAFSKTCQSLLNETTTSSSIPLDIANFMTSSASKLFEMFTHPRSGYMTEKSGLDFSLQANAHKNIVELVRSNIEPLTALMTRDVQALKDALKSEKNEDSVMTEMQQSLEFCSNTYSERLQAVEDEITDLNDEIEKYKAQLKAVQKAIEDEDELTAKLQEEINRLENDSPKANTPTASPRSSRRDSNSDAVLRDHSSEDI
B3: DH domain-containing protein (RhoGEF) (EHI_158230) (protein, UniProt C4M2E2 1-738)
chain: MQSIDQYLLPDVSLSSKELAIVTQLNTLISDPSSRENGLSFILKRISQPMFREFLLRVHPQLYTHLLKSSNDDFGTLQVSLFIVHALSIYPHFINLLVKYDITVFEDLKSLLQSRDDPSITAHTLEIVLNASTSIEDKTLLQSLIDPLLSFFRGNVQHRNLAGKCLCILLTCSANQISFVKQEGIYAILNILYSHVYDEQLLASAMLLQLIKTPNKELAVKLRKIVILNNVLQLIKPLISTGGQLTIRAWQISALLTLATGYEKRFIQSGIFFDAVELIGDQNDKIKETLPCALTVILAVTIDSNLLDVCRGFSLADRLRNCVEHLNQYEPSLRLVILNIIRNLAVDEGLREELQTVKIANYLKTSLNDNNSLEKARIEILTLLKENIEPTSGINIGRDSVEVKRFADMNMKKTQAKQIVEEIVTTEQEYCEHLKCVVEEIKPNFQLVLSDKEIYDIFSNIEDVSNYQQKFLKVLQERWEQQKEREWVEISDLFENYFCEEMKNIYKEYMTRCNQANDYYQTLKKESKKVRKVALDLGIKRIYIPTFLIYPIQRLPRYLLLLETLSKNVPENYEEHNKLLSVKDRANKIVNWLNEEIRKYENEVSLKQWTNKLELSPVNNRIFIAEFHQVMVKASKMVNVCSIILFNDIVIFLKRKKNKDKILNQINLIDLKVFEVEDEKTTFMLVFPSPTNNNEDQRYMLYLSNDDEMKAIFSTLKKAVNLAKTQKKNMISRSVSLI
B4: DUF2807 domain-containing protein (EHI_112850) (protein, UniProt C4M9M4 1-396)
chain: MTPFIGEEVANLIRYCDDIQSLALVSKKYKEKIELHKEENYYNKEVFEDENLEVPPTTKVVRIKFGSGWYVRAFTTLAIGIKDLKLEKLIIELHTPLLVFFDKLLQFIPENTPIILEVHGLDEVIVEKYVINPQIKIGGFNSKINESLIQKKAFVLPERITTPSGVTRTYLSFEASVFDFYSAQLWKLYFPMNLKLKASGEHDKILKMKSFIFNSILITGKLKTIDLHAKNISIIRSYVPVDSCEELEVEQPFGFPEYVAKNKLKKLYIQYSKNITTIDLKAAESMNIVDIVCCDNLKEIKAENVLLMKVIDSPLQNIHLKTVQQLTLFGVNNVSVEGSIDDIQSDGKCFVNGTLSQTIKPIQSIDRKSVMIKFLPIYVVVLLIILGGIKLILEVH
B5: Rho GDI (EHI_147570) (protein, UniProt C4M6L6 1-175)
chain: MSAADIVKNEKDPSLVAYLKSLGIDPDYVPPKDDPRRVVISEFAVLFKEHDPVILKLNTEEDMEKAKKTPIIIKEGAEFKMRVTFRVQHQPVLGLRILNTVSKLGKQVASDEEMLGSYPPKNEFNALELPKNDWNEAPTGMLARGEYKSNVKFYDDDKVTHLQFDYLIKIAKDWD
B6: Rap/Ran GAP (EHI_197320) (protein, UniProt C4LVE8 1-573)
chain: MYSEGNIIINEKSIKWIEQMSMIETTDDGKYLGIFEDFLRHVDSKEFNEKLTLFNEGKGTKIVDKILKVCVEPNIPIENVSKIITCLAFITNNNFKTKEYLYEHNIIEGIENLLIQPEIVKIFEELFSTFEYERKVTTQLTSVQFVTSLLSGLLTLVTNCEDIQKEISEKGIIELLLQLLSNGKQAPNELMTIYGSIIAIIDSYIEKSIKLLPQNTINILKELIFEAQAKGIRIMAIKALTDISDLKLEDYRSIFDELITPIEKEIERINDEFIKQSLLLLFRSICNDEKIESYRFIPFLNSLIEMTQSPIKETMICAIEAINSIALRDDTLNILSNKVEDIVKRIQGIEGEGYSSLMLLLTNMGRTDETIRKYKTYKVTEQIIEYIKIHPHDERALLMSLSVINSISVLHENRDYLTFDLNIFEVLNDWYNVSTNQVIIFNIQQIISRLILNSSLRAEHFMNLPTAINSIIETAGYTVRLIKEKRTPQTSTREVRDVRVAYEATRILCNLINLKSEYANTIMKDPYVIYAILDLIHSHYQILKDEGNYALNRLKQYEIITDDDIKKAEASRI
B7: Isopentenyl phosphate kinase (EHI_178490) (enzyme, UniProt C4LUR5 1-259)
chain: MNSIPNLIILKIGGSYLTEKNRADGPPILENIHMFSKCLAQFIHSHPKQPIILAHGAGSFGHIPAATYHLAEGFHKTGVIECEMAMQELSSIIVNSLIKEGISAIPFHPFNFVVTENKRIVDMYLQPLQMLVNQGVIPVVHGDVAMDIMQGSCILSADQLVPELAIRFGCHRIGFICNSPVLNDKREVIPLINEQNYESIKTFLHGCKGIDVTGGMAGKINELMIAATKHNIQSYVFKGTKECLELFLEGNDVGTKICQ
B8: Ras family GTPase (EHI_004860) (protein, UniProt C4M081 1-183)
chain: MPQTHHFKIVLLGSGSVGKSAIATRYVKNTFIGRYDPTIEETFSKTIEIDGTTVQLEIYDTAGTEQFRTLQDLYMKEGDGFILVFSLVSVATFNDLSSIYGHINEVKNSMEKKFVPIVIAGNKCDLDNRTVTTEQAQEFANNNGCHFMETSAKTQKNINEMFEYLTRQLIEHLPAKKQKCLIL
B9: Ras GEF (EHI_079250) (protein, UniProt C4M7R6 1-474)
chain: MSMEYTEIKQIISEKDILYTIKSCFIGDSSTIEDRKVLMWNCFLALVLNIKGKIGRVTLENYDNFVNRNSSYFPFKNVTIAVVVFNSQDDSYKNIKNWHGEVSRYCGSYDILQTIIVGMFPDETYHQNLPENIQMAISSIPNSKFFYYYPSGTDEFRKVFFSTVVKIRELLFSDEKLNEIQSMKQKRTVVQKKIIAPQVTSTISSSMNRKLKLASRNEDELVILLKAIVLGDESVSNSCHRITQHILGLPEAIGDDIYEYVWIPQHLIQKENMTIRLRMDVYNHNIPSGKSYTPYFNTLISIIVFRYDDKESFKNVVNWYQETQRYSNLQSNHYFIVGCQYNDTEQIIKDQDTENLLNYISKQKEIQFFKVTGSNWDDLTNKFFSFVDDVCRIEFSKEFLEQCASLTKNTKHTLTLDNTQHTNDRNKQYRPFILDEENSNIERDEESGSLLGRERNEEPMEFEYSTDSCCCILF
B10: Proteasome regulatory subunit, putative (EHI_005870) (protein, UniProt C4M2M2 1-300)
chain: MPEATIIIIDTSDYMRNGDYTPSRMEAQIEAVQAITSGRLRKNPENHVGFIAAGSESKRILVTLTGDFGKILSGLHEAKIGGSSDFKQALLVAKLALANRVDKIYTQRIILFVGSPLNINSDEAQTMVNLLKKSNIALDIVSFGEVVDNAPVIELFPSQMGDDCTLVTVPAGPHILLDMISKTNIIMRDGGLNTFDPEFDPEYAAAIRASMGDVNGGTEFYDEDAALRAAIAASLADYENLQTTNVQESKKEEQKEMTMEEEIEEAIKMSLEDNAKSNQSKEEKKEENDDKKMEEDKKNK
B11: Rho small GTPase (EHI_070730) (protein, UniProt Q24816 1-194)
chain: MSEKPTSIKLVVVGDGAVGKTCLLISYSIRKFPEDYIPTVFDNYVVSLTAGTRQIQLALWDTAGQEEYDQLRPLSYSSASIFLICFSVTSSVSYDNVITKWHPEVIHFAPKVPIILVGTKLDTRNDPAIVKRLTEQGMTVINTAKGEELKNRIKAVKYIECSAKTSENLKTVFDEAVKTVLMNKPQQRSKCALL
B12: DUF5857 domain-containing protein (EHI_177500) (protein, UniProt C4LY53 1-214)
chain: MRFKTARKAGVYLQRGPIEYQSKKNSKRVTSVNEGDIVKPKVIEVCIPVSCENNEILDTNCVFNTSYKIACGYVSENKCTPISIKKPCKTKKNVIYISSKRKGKGTKIYNIKAFEDSHCLKPYQGFTENIINCKFNNLKTKKFGCNPENEISVGGICECKNCRTENIKTNIKSNDQLKIKRSEIKFGYNPWFCFFIPGLVVIVVVYFFTHKKPY

biological target: T1, HA-EhRacM (EhRacM tagged with HA at the N-terminus) (Entamoeba histolytica) (UniProt C4M9S3); test: affinity purification with mass spectrometry; trophozoites cross-linked with DSP (RT, 30 min), lysed in 50 mM Tris-HCl pH 7.5, 150 mM NaCl, 1% Triton X-100; precleared with Protein G Sepharose; HA-tagged bait captured on anti-HA agarose (clone HA-7) at 4°C for 3.5 h, eluted with HA peptide …; compared with the pEhEx-HA mock strain
T1 sequence: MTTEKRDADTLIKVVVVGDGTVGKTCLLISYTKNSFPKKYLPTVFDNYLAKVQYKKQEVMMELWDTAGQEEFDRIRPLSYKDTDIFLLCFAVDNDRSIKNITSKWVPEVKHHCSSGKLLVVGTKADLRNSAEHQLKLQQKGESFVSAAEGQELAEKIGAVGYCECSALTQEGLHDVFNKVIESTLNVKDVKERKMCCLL

Row | Binder | binding
1 | B1 | binds
2 | B2 | binds
3 | B3 | binds
4 | B4 | binds
5 | B5 | binds
6 | B6 | binds
7 | B7 | binds
8 | B8 | binds
9 | B9 | binds
10 | B10 | binds
11 | B11 | binds
12 | B12 | binds

— paper PMC11560011
